PubChem BioAssay AID504774 – Drosophila RNAi Screening Center | 2011

Assay: 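Genes required for cells to withstand methyl methanesulphonate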 (primary screen)
System: Drosophila Kc167 cells
Reagent: long dsRNA against Drosophila genes, about 0.25 µg dsRNA per well
Duration: about 6 days: 3 days knock-down, then 3 days with or without MMS
Treatment: methyl methanesulphonate 0.004% (w/v) for 3 days after knock-down
Measurement: 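ATP-dependent luminescence as a measure of live cells in MMS-exposed wells, quantile normalised within each plate, with replicate values also given as a mean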
Scale: mean viability with MMS and viability with MMS: higher = more surviving cells after MMS
The deposit covers about 23,000 reagents; this is an unselected part of those that have a named target and a result. 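Values are quantile-normalised luminescence on an arbitrary scale; higher means more cells surviving MMS.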 The numbers tell different reagents against one gene apart. A plus sign joins genes that one reagent is predicted to hit.

gene,reagent,mean viability with MMS,"viability with MMS, replicate 1","viability with MMS, replicate 2"
Muc68E (Mucin 68E),1,3.55e6,4.05e6,4.01e6
CG9416,1,3.71e6,4.15e6,4.21e6
Ilp8 (Insulin-like peptide 8),1,3.44e6,3.83e6,3.93e6
CG13065,1,3.54e6,4.01e6,4.01e6
CecA1 (Cecropin A1),1,3.46e6,3.90e6,3.91e6
Dtwd2 + Obp84a,1,3.57e6,3.96e6,4.15e6
CG32633,1,3.58e6,3.95e6,4.14e6
Ptp36E (Protein tyrosine phosphatase 36E),1,3.40e6,3.87e6,3.84e6
Rpt5 (Regulatory particle triple-A ATPase 5),1,2.86e6,3.57e6,3.56e6
CG32241,1,3.60e6,4.07e6,4.10e6
CG32241,2,3.58e6,4.06e6,4.06e6
hbt (headbutt),1,3.43e6,3.83e6,3.96e6
hbt (headbutt),2,3.63e6,4.15e6,4.10e6
Det (Deterin),1,3.83e6,4.33e6,4.34e6
CG5854,1,1.64e6,3.85e6,3.77e6
Fs(2)Ket (Female sterile (2) Ketel),1,2.35e6,3.17e6,2.21e6
CG13868,1,3.45e6,3.93e6,3.90e6
CG6220,1,3.74e6,4.14e6,4.15e6
CG10996,1,3.54e6,4.15e6,3.88e6
CG9992,1,3.43e6,3.98e6,3.96e6
CG9992,2,3.55e6,4.01e6,4.05e6
CG14613,1,3.64e6,4.20e6,4.10e6
pins (partner of inscuteable),1,3.45e6,3.90e6,3.87e6
CG12883,1,3.57e6,4.01e6,4.08e6
CG9130 + CG9133,1,3.62e6,3.84e6,3.91e6
CG9130 + CG9133,2,3.62e6,4.10e6,4.11e6
CG9130 + CG9133,3,3.62e6,4.11e6,4.03e6
CG4382,1,3.67e6,4.20e6,4.13e6

Sorted by “viability with MMS, replicate 1” (highest first): 4 of the entries above
gene,reagent,mean viability with MMS,"viability with MMS, replicate 1","viability with MMS, replicate 2"
CG32241,1,3.60e6,4.07e6,4.10e6
CG32633,1,3.58e6,3.95e6,4.14e6
Ptp36E (Protein tyrosine phosphatase 36E),1,3.40e6,3.87e6,3.84e6
Rpt5 (Regulatory particle triple-A ATPase 5),1,2.86e6,3.57e6,3.56e6
